## Library screen at single concentrations

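Cell assay of Leishmania donovani living inside macrophages; the read-out is not stated. Compounds at 30 µM. The record gives no direction; compounds that gave an IC50 in retests scored well above the rest, so higher reads as stronger inhibition. Of about 69,000 compounds tested this way, about 1,000 (1.5%) reached 50% or more in at least one test.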

Each number is a percent effect as filed.
How 0% and 100% were set is not recorded. Most values in the screen are low, and negative values occur.
Compounds were drawn at random from those tested, without regard to their results.

Compound | percent effect
Cc1noc(C)c1-c1nc(C2CCCN(C(=O)CN)C2)ccc1CO (centres unmarked) | 19.41%
COc1ccc(C)cc1-c1[nH]c2ccccc2c1C(=O)O | 23.62%
CN(Cc1ccc(C#N)cc1)Cc1noc(C(C)(C)C)n1 | -13.26%
Cc1cc(C(=O)N2CC(O)CO2)c2ccc(C)c(C)c2n1 (centres unmarked) | -20.38%
Cn1nc(Cn2cccn2)c2c1CN(Cc1ccsc1)C2.O=C(O)C(F)(F)F | 38.96%
Cc1nc(CNC(C(=O)N2CCOCC2)c2ccccc2)cs1 (centres unmarked) | 22.07%
CCn1cc(-c2cc(-c3cc(CC(=O)O)cs3)nc(N)c2C#N)c(C)n1 | -18.15%
O=C1CC2(CCSC2)C(=O)N1CCCc1ccccc1 (centres unmarked) | -6.315%
CC(C)c1nc(C(=O)N2C[C@H](C(C)C)[C@@H](N)C2)cs1 | 39.61%
COc1cc2c(cc1OC)S(=O)(=O)N(Cc1ccccc1C)C2=O | -12.52%
Cn1cc(Br)c(=O)c(NS(=O)(=O)c2ccccc2F)c1 | 12.45%
CCSCCC(=O)NCc1cnn(-c2ccc(F)cc2F)c1 | -1.043%
CC(=O)N1CCC2(CC1)CN(C(C)C)c1ccc(F)cc12 | 12.88%
O=C(CC1OCCc2ccsc21)NCC1CC1 (centres unmarked) | 11.79%
O=C(CN1CCCS(=O)(=O)CC1)NCc1ccccc1F | 5.912%
COc1ccc(OC)c(NC(=O)NCC(O)c2ccc(F)c(F)c2)c1 (centres unmarked) | 1.386%
CCN1CC2(CC1=O)CN(Cc1ccoc1)CCN(C(=O)C(C)C)C2 (centres unmarked) | 8.034%
N#Cc1ccc(N2CCCN(CCCn3cncn3)CC2)cc1 | 11.48%
Cn1cc(-c2nnn3c2COC(CNCC2CCOCC2)C3)cn1 (centres unmarked) | 29.36%
Cc1ccc(-c2nc(CN3CCOC(c4ccccc4)C3)cs2)o1 (centres unmarked) | 48.56%
CCc1ccc(NS(=O)(=O)CC2=NC(=O)n3cccc3C2=O)cc1 | 9.587%
CCc1cc(N(C)Cc2[nH]nc3c2CCC3)nc(N2CCOCC2)n1 | 15.11%
NC(=O)CCn1ccc(NC(=O)c2ccc(Br)o2)n1 | 22.25%
Cc1cc(S(=O)(=O)NCC(C)(O)CN(C)C)c(F)cc1F (centres unmarked) | 12.78%
Cc1nc(N2CCCC(OCc3ccccn3)C2)c2c(C)noc2n1 (centres unmarked) | 15.12%
O=C(O)C(F)(F)F.[H][C@@]12C[C@@H](Oc3cccc(F)c3)CN1CCN(C(=O)c1ccnnc1)C2 | 5.462%
O=C(Nc1ccc2c(c1)OCO2)N1CCN(CCc2ccccc2)CC1 | 34.18%
COc1ccc(C(=O)C2CCCN(Cc3ccncc3)C2)cc1OC (centres unmarked) | -27.17%
CN1CCN(C[C@@H]2CN(C(=O)CC3CCCCC3)C[C@@H]2CO)CC1 | 7.828%
Cc1ccc(C(=O)N(C2CC2)C2CC(=O)NC2=O)cc1F (centres unmarked) | 20.8%
Cc1nccn1-c1ccc(C(C)Nc2cnn(C)c(=O)c2Cl)cc1 (centres unmarked) | -38.68%
Cc1cc(N(C)Cc2snnc2C)nc(-c2cccnc2)n1 | -1.279%
[H][C@]12CN(Cc3cccs3)CCN1C[C@H](c1ccccc1)[C@H]2C(=O)NC | 9.572%
Cc1ccc(OCC(=O)NC2(C#N)CCSCC2)cc1C | 19.35%
O=C(c1cc(Cl)cc2cccnc12)N1CCN(CCO)CC1 | -10.53%
Cc1cc(C)nc(N2CCN(C(=O)c3ccc(C4CCCO4)s3)CC2)n1 (centres unmarked) | 28.91%
Cc1nnc(C(C)N2CCN(Cc3ccc(C(F)(F)F)cc3)CC2)o1 (centres unmarked) | 40.15%
Cc1ccc(NC2CCN(C(=O)CCc3ccncc3)CC2)nn1 | 38.33%
COCCO[C@H]1CCN(Cc2cccnc2)[C@H]1Cc1cccnc1.O=C(O)C(F)(F)F.O=C(O)C(F)(F)F.O=C(O)C(F)(F)F | -2.065%
Cc1c[nH]c(C2COCCN2C(=O)c2ccc(=O)[nH]n2)n1 (centres unmarked) | 0.02655%
O=C1COc2ccccc2N1CCCn1cnnn1 | 18.14%
CC(C)N1CC(n2ccnc2-c2nccn2C)CC1=O (centres unmarked) | -0.1757%
CCN1CCCC(O)(c2nc(C)c(CCOc3ccccc3F)s2)CC1 (centres unmarked) | 7.204%
Cn1cccc1C(=O)N1CCC2(CC1)CN(c1cncnc1)C(=O)CO2 | 9.977%
Cc1noc(C)c1S(=O)(=O)N(CC(N)=O)CC(C)C | 11.02%
Cc1ccccc1C(CNc1ncnc2c1CCNC2)N(C)C (centres unmarked) | -14.27%
O=C(NCc1cccnc1-n1cncn1)C1CC2(CCNCC2)CN1 (centres unmarked) | -24.83%
Cc1ccc(C)c2c(O)cc(CNCc3ccc(S(N)(=O)=O)cc3)nc12 | -0.2667%
Cc1ccc(-n2c(SCC(=O)O)nnc2-c2ccccc2)cc1 | 8.748%
CCc1nc(NS(=O)(=O)c2cccc(F)c2C)no1 | 8.462%
CCCC(NC(=O)c1cc(C)c(F)cc1F)c1nnn[nH]1 (centres unmarked) | 15.49%
O=C(NCc1ccco1)C1CCCN1Cc1nc(-c2ccco2)no1 (centres unmarked) | 10.75%
OC(CN1CCCCCCC1)c1ccc(OC(F)(F)F)cc1 (centres unmarked) | -0.2809%
O=C(O)C(F)(F)F.[H][C@]12CCC[C@@]1(COCc1cccnc1)CN(C(=O)c1ccn(C)n1)C2 | 16.95%
O=C(O)C(F)(F)F.[H][C@@]12COC[C@@H](CC(=O)N3CCCC3)[C@]1([H])CN(Cc1ccccc1)C2 | -6.061%
CC(C)c1nc(CNC2CCCN(c3cccnn3)C2)no1 (centres unmarked) | -11.07%
CSc1nccc(NCC2CNCCOC2)n1 (centres unmarked) | 20.08%
Cc1nc(N2CCOCC2)ncc1-c1cc(O)nc(N2CCCCC2)n1 | -67.39%
CN(Cc1cc(-c2cccnc2)no1)C(=O)C1CCCN1S(C)(=O)=O (centres unmarked) | 26.15%
CC(C)NC(=O)NC[C@H]1OC[C@@H](NCc2cccs2)[C@@H]1O | -6.487%
CN(C)Cc1cc(=O)n2c(n1)CN(C(=O)Cc1ccsc1)CCC2.O=C(O)C(F)(F)F | 9.419%
CC(Nc1nc(-c2ccccc2)nc2c1CCNCC2)c1nccs1 (centres unmarked) | 7.457%
Cc1cc(NC(=O)CNC(C)(C)c2nc(C)c(C)s2)no1 | -12.96%
N#Cc1ccc(NCCCN2C(=O)COc3ccccc32)nc1 | 26.43%
O=C(O)C(F)(F)F.[H][C@@]12OCCN(C(=O)c3cscn3)[C@@]1([H])CC[C@@H]2Oc1ccccn1 | -7.554%
Fc1cc(Cl)cnc1N1CCCC(c2nccn2Cc2ccncc2)C1 (centres unmarked) | 18.61%
Cc1ccc(C(C)NC(=O)N2CCN(C(=O)CC(F)(F)F)CC2)o1 (centres unmarked) | 44.17%
c1ccc2c3c([nH]c2c1)C(c1nn[nH]n1)CCC3 (centres unmarked) | 12.61%
Fc1ccc(CNC2CCN(CCc3ccncc3)CC2)cc1F | 73.28%
CC(c1ccccc1)N(C)C(=O)CN1CCCc2cc(F)cc(F)c21 (centres unmarked) | -83.39%
Cc1occc(=O)c1OCc1noc(C(=O)NCC2CC2)n1 | -34.54%
CCOCc1nc2c(c(N3CC=CC3)n1)CCN(Cc1ccco1)CC2 | 3.654%
Cc1nc(CCN(C)C(=O)C2COc3ccccc3C2)no1 (centres unmarked) | 0.8332%
CNc1cc(C(=O)N2CCOC(C(=O)NC3CCCC3)C2)ccn1 (centres unmarked) | -35.48%
O=C(c1cn(-c2cc(N3CCSCC3)ncn2)cn1)N1CCSCC1 | 33.61%
CC/C=C(/C)C(=O)NS(=O)(=O)c1ccc(C#N)cc1C(F)(F)F | -4.098%
CCOc1cc(C)nc(N2CCN(C(=O)c3cn[nH]c3CC)CC2)n1 | 6.651%
[H][C@]12CN(Cc3ccccc3Br)C[C@]1([H])OCC(=O)N2 | 1.568%
O=C(NC1CCCCC1)N1CCc2onc(COc3cccnc3)c2C1.O=C(O)C(F)(F)F | -17.52%
CC(NC(=O)CCCc1nc(C(C)(C)C)no1)c1nnc2n1CCC2 (centres unmarked) | 26.97%
Cc1nc(N2CCC(CN3CCCC3)CC2)c2cnn(C)c2n1 | -0.6254%
CCN(Cc1ccoc1)C(=O)c1cc(C)c(C)c(S(N)(=O)=O)c1 | 22.11%
COc1cccc(C(=O)NCc2ccccc2S(=O)(=O)N(C)CCO)c1 | 8.169%
CSc1cccc(CNC(=O)[C@H]2CNC[C@H](C(=O)N3CCOCC3)C2)c1 | -7.719%
Fc1ccccc1Oc1nccnc1C1CCN(C2CCOCC2)CC1 | 13.24%
CCCN1C(=O)CC2(CCCNC2)C1=O.Cl (centres unmarked) | 20.15%
COc1ccc(-c2cnc(NC(C)=O)[nH]2)cc1 | 17.64%
O=C(O)C(F)(F)F.O=C(O)C(F)(F)F.[H][C@@]12C[C@H](C(=O)NCc3cccnc3)[C@@]([H])(CN(Cc3cccc(C)c3)C1)O2 | -16.35%

The values are deposited in ChEMBL (CHEMBL3988442, “University of Dundee, Small-Polar-MMV Screening Library” (2021)).